# According to patent publication US20050272031A1, “Viral variants and uses therefor” (MELBOURNE HEALTH, priority 2000, published 2005):
# Read-outs that look alike come from different tables or passages of the source. At least one compound was matched to its structure with a doubt left.
# How the values were obtained:
# [1] = system: HBV mutant P120T/M550I; experiment: Sensitivity of viral progeny DNA to 3TC, transiently transfected HuH-7 cells, Southern Blot of encapsidated HBV DNA; type: cell-based, Hepatitis B virus; conditions: 3TC 5 μg/ml; HuH-7 cells harvested 5 days after transfection
# [2] = system: HBV; conditions: chronically infected patients after OLT; cited from earlier work
# [3] = system: HBIG/LAM-mutants of HBV; experiment: Replication levels of polymerase mutants under LAM treatment in cell culture (FIG. 4); type: cell-based, Hepatitis B virus; conditions: 0.5 up to 5 μM LAM in the cell culture medium
# [4] = system: HBV mutant G145R/L526M/M550V; experiment: Sensitivity of viral progeny DNA to 3TC, transiently transfected HuH-7 cells, Southern Blot of encapsidated HBV DNA; type: cell-based, Hepatitis B virus; conditions: 3TC 5 μg/ml; HuH-7 cells harvested 5 days after transfection
# [5] = system: HBV; experiment: Inhibition of HBV replication and polymerase function (FIG. 7 and FIG. 8); type: cell-based, Hepatitis B virus; conditions: by inhibiting the polymerase function of the virus
# [6] = system: HBV mutant P120T/L526M/M550V; experiment: Sensitivity of viral progeny DNA to 3TC, transiently transfected HuH-7 cells, Southern Blot of encapsidated HBV DNA; type: cell-based, Hepatitis B virus; conditions: 3TC 5 μg/ml; HuH-7 cells harvested 5 days after transfection
# [7] = system: HBV polymerase with HBIG/LAM associated combination mutations; experiment: Endogenous polymerase assay of polymerase mutants (FIG. 7); type: biochemical, Hepatitis B virus; conditions: harvested from cells following treatment with LAM
# [8] = system: HBIG-mutants of HBV; experiment: Replication levels of polymerase mutants under LAM treatment in cell culture (FIG. 4); type: cell-based, Hepatitis B virus; conditions: 0.5 up to 5 μM LAM in the cell culture medium
# [9] = system: HBV mutants G145R, P120T, L526M, M550V, M550I, G145R/M550I and L526M/M550V; experiment: Sensitivity of viral progeny DNA to 3TC, transiently transfected HuH-7 cells, Southern Blot of encapsidated HBV DNA; type: cell-based, Hepatitis B virus; conditions: 3TC 5 μg/ml; HuH-7 cells harvested 5 days after transfection
# [10] = system: HBV; experiment: HBV DNA titres in sera of chronically infected patients after orthotopic liver transplantation; type: in vivo, human; conditions: chronically infected patients after OLT, treatment with LAM and HBIG; after a few months titres rose to pre-treatment levels
structure (smiles),measurement,setting,value
"Nc1ccn([C@@H]2CS[C@H](CO)O2)c(=O)n1 [3TC, (−)-β-2′-deoxy-3′-thiacytidine]",replication levels in the presence of 3TC,[1],higher replication levels
same,sensitivity of viral progeny DNA to 3TC,[1],resistant
same,HBV DNA titres in sera,[2],reduces HBV DNA titres
same,replication fitness under LAM,[3],enhanced increased in replication fitness
same,replication levels in the presence of 3TC,[4],higher replication levels
same,sensitivity of viral progeny DNA to 3TC,[4],resistant
same,inhibition of HBV replication,[5],potential inhibitor of HBV replication
same,replication levels in the presence of 3TC,[6],higher replication levels
same,sensitivity of viral progeny DNA to 3TC,[6],resistant
same,polymerase activity following LAM treatment,[7],enhanced polymerase activity
same,sensitivity of polymerase activity to LAM,[7],no longer sensitive to LAM
same,sensitivity of replication to LAM,[8],sensitivity to LAM
same,resistance or sensitivity to 3TC,[9],Resistance or sensitivity to 3TC was shown
same,HBV DNA titres in sera,[10],reduced
